The target in this experiment is Receptor tyrosine-protein kinase Erbb-2 (UniProt P04626). In words: flow cytometry on SKOV3 cells, Alexafluor 488 conjugate.

No constants are given. Whether binding was seen depends on the method and setting. Some entries that bind do so weakly or less than the wild type.

B1: chimeric A19 (antibody, V domains shown)
VH: QVKLQESGAELMKPGASVKISCKATGYTFSNYWIEWVKQRPGHGLEWIGEILPGSDSTNYNEKFKGKATFTADTSSNTAYMQLSSLTSEDSAVYYCARGGSNYGYYFDYWGQGTTVTVSS
VL: DILMTQSHKFMSTSVGDRVSIPCKASQDVGTAVAWYQQKPGQSPKLLIYWASTRHTGVPDRFTGSGSGTDFTLSISNVQSEDLADYFCQQYSSYRTFGGGTKLEIKR
B1: the binding entry was “binds”.

Values taken from patent US20200325246A1.
